Test results as given in the supplement of paper PMC10849652.
The other results are listed elsewhere or left out.

Sequences of proteins named here, by UniProt entry; tags and fusion partners are left off. A change or cut given only in a name is not applied to a line headed by its entry.
UniProt O94992, whole entry, looked up: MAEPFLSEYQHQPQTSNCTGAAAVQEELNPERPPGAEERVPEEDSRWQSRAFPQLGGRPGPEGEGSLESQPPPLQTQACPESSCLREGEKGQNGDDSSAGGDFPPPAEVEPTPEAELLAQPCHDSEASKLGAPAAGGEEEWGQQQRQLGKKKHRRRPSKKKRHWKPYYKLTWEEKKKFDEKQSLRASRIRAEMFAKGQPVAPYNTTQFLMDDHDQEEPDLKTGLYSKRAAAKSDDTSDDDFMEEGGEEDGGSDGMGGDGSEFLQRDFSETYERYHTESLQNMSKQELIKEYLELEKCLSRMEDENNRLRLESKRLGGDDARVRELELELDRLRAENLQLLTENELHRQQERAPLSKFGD
UniProt Q969Y2: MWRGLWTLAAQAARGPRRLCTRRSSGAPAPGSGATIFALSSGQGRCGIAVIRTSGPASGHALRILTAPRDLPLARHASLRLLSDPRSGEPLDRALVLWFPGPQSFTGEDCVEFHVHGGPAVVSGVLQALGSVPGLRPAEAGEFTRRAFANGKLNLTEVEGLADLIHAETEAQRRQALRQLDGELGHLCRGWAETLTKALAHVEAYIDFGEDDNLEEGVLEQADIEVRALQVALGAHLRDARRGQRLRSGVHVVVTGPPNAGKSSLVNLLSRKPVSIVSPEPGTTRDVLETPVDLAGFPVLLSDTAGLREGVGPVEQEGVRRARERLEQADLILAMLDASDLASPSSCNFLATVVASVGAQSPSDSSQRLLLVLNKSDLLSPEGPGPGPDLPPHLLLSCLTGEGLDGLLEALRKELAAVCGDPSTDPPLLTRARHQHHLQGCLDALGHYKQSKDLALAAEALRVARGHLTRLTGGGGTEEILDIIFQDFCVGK
UniProt Q9BXW7: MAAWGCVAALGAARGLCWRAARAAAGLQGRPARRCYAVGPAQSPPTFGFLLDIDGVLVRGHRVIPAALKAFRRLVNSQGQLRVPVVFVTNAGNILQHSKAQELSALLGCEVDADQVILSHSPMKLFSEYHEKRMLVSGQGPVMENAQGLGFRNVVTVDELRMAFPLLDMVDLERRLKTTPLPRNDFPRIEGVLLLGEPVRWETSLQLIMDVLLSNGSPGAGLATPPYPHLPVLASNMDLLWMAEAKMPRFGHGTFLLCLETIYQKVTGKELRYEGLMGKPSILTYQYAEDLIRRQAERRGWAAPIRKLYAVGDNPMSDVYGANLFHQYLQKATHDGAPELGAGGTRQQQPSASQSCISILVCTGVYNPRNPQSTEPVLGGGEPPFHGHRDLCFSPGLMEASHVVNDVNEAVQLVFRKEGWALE
UniProt P06396, whole entry, looked up: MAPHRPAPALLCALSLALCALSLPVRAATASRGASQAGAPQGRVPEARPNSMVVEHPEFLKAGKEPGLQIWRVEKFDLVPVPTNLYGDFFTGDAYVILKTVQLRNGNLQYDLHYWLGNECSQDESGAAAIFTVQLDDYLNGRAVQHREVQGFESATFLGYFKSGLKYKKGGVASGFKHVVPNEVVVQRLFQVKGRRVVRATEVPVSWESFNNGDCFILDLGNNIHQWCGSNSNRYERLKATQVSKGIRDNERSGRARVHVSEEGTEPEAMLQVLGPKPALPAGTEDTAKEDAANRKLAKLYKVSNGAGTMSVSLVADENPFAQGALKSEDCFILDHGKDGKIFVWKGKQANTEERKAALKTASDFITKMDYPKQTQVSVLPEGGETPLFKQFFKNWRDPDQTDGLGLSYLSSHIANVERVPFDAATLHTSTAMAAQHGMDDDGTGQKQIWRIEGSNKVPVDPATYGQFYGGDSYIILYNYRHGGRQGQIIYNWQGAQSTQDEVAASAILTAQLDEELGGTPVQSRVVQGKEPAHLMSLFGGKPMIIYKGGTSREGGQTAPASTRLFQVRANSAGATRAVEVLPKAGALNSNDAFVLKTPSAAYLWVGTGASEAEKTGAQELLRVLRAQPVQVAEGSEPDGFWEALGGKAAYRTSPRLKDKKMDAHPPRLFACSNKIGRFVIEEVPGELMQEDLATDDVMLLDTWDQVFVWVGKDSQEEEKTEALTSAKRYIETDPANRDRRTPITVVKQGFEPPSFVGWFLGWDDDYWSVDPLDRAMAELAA
UniProt Q8N4P3, whole entry, looked up: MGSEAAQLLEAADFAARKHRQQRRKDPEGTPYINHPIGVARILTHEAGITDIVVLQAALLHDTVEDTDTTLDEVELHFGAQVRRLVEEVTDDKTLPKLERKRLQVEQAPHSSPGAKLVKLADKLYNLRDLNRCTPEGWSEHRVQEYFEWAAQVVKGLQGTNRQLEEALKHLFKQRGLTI
UniProt P10412, whole entry, looked up: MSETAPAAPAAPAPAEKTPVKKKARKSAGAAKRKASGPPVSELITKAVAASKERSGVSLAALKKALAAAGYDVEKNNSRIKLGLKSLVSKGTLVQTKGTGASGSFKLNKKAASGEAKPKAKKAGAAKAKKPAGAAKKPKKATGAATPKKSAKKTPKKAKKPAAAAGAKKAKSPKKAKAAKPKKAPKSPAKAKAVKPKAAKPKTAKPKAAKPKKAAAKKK
UniProt P13984, whole entry, looked up: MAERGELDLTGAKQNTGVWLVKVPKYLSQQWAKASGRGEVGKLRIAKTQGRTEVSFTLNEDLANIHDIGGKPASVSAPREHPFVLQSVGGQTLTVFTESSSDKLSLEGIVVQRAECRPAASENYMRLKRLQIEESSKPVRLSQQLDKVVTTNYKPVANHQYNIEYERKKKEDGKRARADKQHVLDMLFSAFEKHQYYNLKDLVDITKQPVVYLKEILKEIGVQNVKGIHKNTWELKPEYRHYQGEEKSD
UniProt P16402, whole entry, looked up: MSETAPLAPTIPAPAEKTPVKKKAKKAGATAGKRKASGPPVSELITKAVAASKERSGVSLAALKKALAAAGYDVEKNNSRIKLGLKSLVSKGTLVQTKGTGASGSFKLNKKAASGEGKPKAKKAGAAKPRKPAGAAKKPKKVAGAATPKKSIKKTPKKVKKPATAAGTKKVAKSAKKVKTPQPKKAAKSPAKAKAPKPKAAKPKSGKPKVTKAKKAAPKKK
UniProt Q7Z4Q2: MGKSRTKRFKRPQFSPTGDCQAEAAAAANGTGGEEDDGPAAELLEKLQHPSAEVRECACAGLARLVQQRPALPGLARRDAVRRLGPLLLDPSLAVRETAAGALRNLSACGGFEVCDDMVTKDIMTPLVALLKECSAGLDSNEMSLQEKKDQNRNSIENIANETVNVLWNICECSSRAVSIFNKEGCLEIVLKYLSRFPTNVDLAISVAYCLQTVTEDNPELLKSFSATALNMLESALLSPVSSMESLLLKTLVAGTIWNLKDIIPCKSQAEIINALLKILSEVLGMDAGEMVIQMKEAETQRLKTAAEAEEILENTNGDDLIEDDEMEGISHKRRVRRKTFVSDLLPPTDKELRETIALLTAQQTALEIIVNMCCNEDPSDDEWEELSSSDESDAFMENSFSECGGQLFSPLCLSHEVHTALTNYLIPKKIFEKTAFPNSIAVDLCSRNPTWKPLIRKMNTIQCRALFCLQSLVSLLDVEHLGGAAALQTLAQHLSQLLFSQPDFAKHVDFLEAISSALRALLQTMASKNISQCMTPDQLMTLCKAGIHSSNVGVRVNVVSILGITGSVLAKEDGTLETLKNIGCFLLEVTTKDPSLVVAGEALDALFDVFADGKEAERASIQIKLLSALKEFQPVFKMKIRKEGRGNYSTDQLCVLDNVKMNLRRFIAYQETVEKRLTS
UniProt P12081: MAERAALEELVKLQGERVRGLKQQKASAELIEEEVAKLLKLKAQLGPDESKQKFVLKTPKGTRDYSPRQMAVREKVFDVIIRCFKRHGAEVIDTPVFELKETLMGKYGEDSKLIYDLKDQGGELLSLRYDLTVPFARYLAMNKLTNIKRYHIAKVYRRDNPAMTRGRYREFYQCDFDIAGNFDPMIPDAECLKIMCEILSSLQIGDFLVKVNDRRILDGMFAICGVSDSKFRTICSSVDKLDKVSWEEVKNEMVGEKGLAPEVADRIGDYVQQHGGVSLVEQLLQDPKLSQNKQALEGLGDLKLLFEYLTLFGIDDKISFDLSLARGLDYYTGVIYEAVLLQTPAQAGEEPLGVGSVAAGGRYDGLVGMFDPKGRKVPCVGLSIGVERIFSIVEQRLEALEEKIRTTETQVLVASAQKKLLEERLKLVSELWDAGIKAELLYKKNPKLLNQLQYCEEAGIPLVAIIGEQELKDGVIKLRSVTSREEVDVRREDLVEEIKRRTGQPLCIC
UniProt Q8NEC7: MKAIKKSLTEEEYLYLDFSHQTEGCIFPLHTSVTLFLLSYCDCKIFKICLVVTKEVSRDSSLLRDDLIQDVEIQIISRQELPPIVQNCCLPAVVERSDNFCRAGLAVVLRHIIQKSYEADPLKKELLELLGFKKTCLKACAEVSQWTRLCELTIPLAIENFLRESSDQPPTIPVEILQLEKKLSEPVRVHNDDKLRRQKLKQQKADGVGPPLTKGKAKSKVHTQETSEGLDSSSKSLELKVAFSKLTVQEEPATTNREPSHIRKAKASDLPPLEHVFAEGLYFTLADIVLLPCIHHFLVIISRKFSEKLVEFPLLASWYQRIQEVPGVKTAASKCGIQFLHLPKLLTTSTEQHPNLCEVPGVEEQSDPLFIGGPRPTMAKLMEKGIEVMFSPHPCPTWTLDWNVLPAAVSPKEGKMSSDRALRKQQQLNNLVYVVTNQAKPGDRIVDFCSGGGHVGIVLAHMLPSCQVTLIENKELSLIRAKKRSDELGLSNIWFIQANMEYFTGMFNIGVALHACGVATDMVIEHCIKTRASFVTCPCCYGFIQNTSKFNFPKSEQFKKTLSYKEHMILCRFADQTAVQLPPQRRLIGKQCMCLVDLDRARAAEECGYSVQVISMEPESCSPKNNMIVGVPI
UniProt Q8NG08: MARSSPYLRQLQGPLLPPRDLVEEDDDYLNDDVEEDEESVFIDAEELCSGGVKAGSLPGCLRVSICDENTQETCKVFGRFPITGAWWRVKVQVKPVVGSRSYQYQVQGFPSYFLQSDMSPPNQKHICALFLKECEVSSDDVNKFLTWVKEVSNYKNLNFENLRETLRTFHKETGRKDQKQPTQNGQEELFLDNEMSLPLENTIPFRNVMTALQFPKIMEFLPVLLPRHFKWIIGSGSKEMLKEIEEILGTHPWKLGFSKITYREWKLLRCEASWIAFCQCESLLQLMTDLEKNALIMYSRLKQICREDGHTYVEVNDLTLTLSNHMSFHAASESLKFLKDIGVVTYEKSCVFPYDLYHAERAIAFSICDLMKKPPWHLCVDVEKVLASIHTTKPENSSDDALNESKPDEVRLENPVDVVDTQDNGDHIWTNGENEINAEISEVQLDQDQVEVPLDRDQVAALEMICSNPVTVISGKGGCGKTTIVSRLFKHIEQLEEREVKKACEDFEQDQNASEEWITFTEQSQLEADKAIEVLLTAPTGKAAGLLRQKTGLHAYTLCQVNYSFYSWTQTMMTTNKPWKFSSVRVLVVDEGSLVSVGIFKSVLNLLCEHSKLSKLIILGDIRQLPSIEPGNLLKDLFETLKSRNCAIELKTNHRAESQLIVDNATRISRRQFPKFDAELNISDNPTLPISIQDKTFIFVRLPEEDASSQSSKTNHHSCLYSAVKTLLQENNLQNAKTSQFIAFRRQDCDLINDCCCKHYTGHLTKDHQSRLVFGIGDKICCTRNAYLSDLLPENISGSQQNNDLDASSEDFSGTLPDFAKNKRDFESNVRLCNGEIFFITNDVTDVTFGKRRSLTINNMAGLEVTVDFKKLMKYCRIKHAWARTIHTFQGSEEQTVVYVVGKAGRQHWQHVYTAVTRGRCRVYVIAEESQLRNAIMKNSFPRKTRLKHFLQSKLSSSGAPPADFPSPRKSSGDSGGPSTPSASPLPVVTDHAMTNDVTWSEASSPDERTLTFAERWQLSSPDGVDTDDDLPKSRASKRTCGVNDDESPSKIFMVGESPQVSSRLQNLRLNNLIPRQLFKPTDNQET
UniProt Q9P035: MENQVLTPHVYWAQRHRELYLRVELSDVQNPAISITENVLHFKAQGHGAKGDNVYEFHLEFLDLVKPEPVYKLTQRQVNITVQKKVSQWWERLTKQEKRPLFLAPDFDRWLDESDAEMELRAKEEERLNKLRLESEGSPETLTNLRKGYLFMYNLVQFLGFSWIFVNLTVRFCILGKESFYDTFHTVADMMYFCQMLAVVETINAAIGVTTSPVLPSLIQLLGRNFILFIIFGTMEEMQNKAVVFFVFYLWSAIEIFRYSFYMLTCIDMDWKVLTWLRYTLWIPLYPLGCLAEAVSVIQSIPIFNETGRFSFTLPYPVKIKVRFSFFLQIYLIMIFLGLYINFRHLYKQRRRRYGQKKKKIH
UniProt Q9H0R4: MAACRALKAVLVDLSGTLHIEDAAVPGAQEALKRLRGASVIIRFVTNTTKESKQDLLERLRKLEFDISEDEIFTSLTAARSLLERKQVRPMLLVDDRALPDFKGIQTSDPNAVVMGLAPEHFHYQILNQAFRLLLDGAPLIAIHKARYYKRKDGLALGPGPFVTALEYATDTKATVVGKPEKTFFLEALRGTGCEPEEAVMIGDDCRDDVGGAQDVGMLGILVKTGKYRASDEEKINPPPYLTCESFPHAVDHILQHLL

How the values were obtained:
Assay in all cases: log2 fold change, soluble protein after heating vs DMSO (PISA); higher = thermal stabilisation; K562 cells, 10 uM, 30 min; active = over 0.2 and 3.5 SD of the protein, either way, in both replicates (recomputed)
[1] = compound: CC1=C(C=C(C=C1)NC(=O)C2=CC(=CC=C2)C(C)(C)C#N)NC3=CC4=C(C=C3)N=CN(C4=O)C
Summary of the method: (§1)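 K562 cells at 2×10^6 cells/mL were exposed to 10 μM compound for 30 min, then aliquots were heated for 3 min across 48°C-58°C, pooled, and extracted in PBS containing 0.5% NP-40 at 4°C. The supernatant after 21,000xg for 90 min was taken as soluble protein and measured by TMTpro 16plex LC-MS/MS with channel sums equalised. Thermal stability is reported relative to control samples, with values from duplicates. Fold changes are given on a log2 scale.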

[2] = compound: CC1=C(C=C(C=C1)NC(=O)C2=CC(=CC=C2)N(C)C)NC(=O)C3=CC=C(C=C3)O
Summary of the method: as §1

[3] = compound: CC1=CC=C(C=C1)SC2=C3C=C(SC3=CN=C2)C(=O)N
Summary of the method: as §1

[4] = compound: CC1=NC(=CC=C1)C2=C(N=C(N2)C(C)(C)C)C3=CC4=NC=CN=C4C=C3
Summary of the method: as §1

[5] = compound: CCCCN(Cc1ccc(C(=O)NO)cc1)C(=O)Nc1ccccc1 [Nexturastat A]
Summary of the method: as §1

[6] = compound: CCCS(=O)(=O)Nc1ccc(F)c(C(=O)c2c[nH]c3ncc(-c4ccc(Cl)cc4)cc23)c1F [vemurafenib]
Summary of the method: as §1

[7] = compound: CCCS(=O)(=O)Nc1ccc(F)c(C(=O)c2c[nH]c3ncc(Cl)cc23)c1F
Summary of the method: as §1

[8] = compound: CCCc1cc(C)[nH]c(=O)c1CNC(=O)c1cc(-c2ccnc(N3CCN(C)CC3)c2)cc2c1cnn2C(C)C
Summary of the method: as §1

[9] = compound: CCN(CC)Cc1ccc2cc(COC(=O)Nc3ccc(C(=O)NO)cc3)ccc2c1 [givinostat]
Summary of the method: as §1

[10] = compound: CCN(CCCOc1ccc2c(Nc3cc(CC(=O)Nc4cccc(F)c4)[nH]n3)ncnc2c1)CCOP(=O)(O)O [barasertib]
Summary of the method: as §1

[11] = compound: CC[C@@H]1C(=O)N(C)c2cnc(Nc3ccc(C(=O)NC4CCN(C)CC4)cc3OC)nc2N1C1CCCC1
Summary of the method: as §1

[12] = compound: CC[C@@H]1C(=O)N(C)c2cnc(Nc3ccc(C(=O)N[C@H]4CC[C@H](N5CCN(CC6CC6)CC5)CC4)cc3OC)nc2N1C(C)C [volasertib]
Summary of the method: as §1

[13] = compound: CC[C@H](C)N1C=C(C2=C(C=C(C=C21)C3=CN=C(C=C3)N4CCNCC4)C(=O)NCC5=C(C=C(NC5=O)C)C)C
Summary of the method: as §1

[14] = compound: CC[C@H](C)[C@@H](C(=O)N[C@@H]([C@@H](C)O)C(=O)N[C@@H](CC(C)C)C(=O)[C@]1(CO1)C)NC(=O)[C@H]([C@@H](C)CC)N(C)C(=O)C [epoxomicin]
Summary of the method: as §1

[15] = compound: CCn1c(C(=O)N(C2CC2)C2CC2)cc2c3c(ncn3C)c(Nc3cc(C)n(C)n3)nc21
Summary of the method: as §1

[16] = compound: CCn1cc(-c2ccnc3[nH]c(-c4cccc(CN(C)C)c4)cc23)c(-c2ccc(NC(=O)N(C)C)cc2)n1
Summary of the method: as §1

[17] = compound: CN(C)CC(=O)Nc1ccc2[nH]c(=O)c3ccccc3c2c1
Summary of the method: as §1

[18] = compound: CN(CCOC1=CC=C(C=C1)C[C@H]2C(=O)NC(=O)S2)C3=CC=CC=N3 (racemic) [rosiglitazone]
Summary of the method: as §1

[19] = compound: CN1C2=C(C3=C1C(=O)N(N=C3)CC4=CC(=CC=C4)N)SC(=C2)S(=O)C
Summary of the method: as §1

[20] = compound: CN1CCC(CNc2ccc3ncc(-c4cccc(OC(F)(F)F)c4)n3n2)CC1
Summary of the method: as §1

Target	log2 fold change [1]	log2 fold change [2]	log2 fold change [3]	log2 fold change [4]	log2 fold change [5]	log2 fold change [6]	log2 fold change [7]	log2 fold change [8]	log2 fold change [9]	log2 fold change [10]	log2 fold change [11]	log2 fold change [12]	log2 fold change [13]	log2 fold change [14]	log2 fold change [15]	log2 fold change [16]	log2 fold change [17]	log2 fold change [18]	log2 fold change [19]	log2 fold change [20]
HEXIM1 (UniProt O94992)	inactive: -0.023	inactive: 0.049	inactive: -0.054	inactive: -0.093	inactive: -0.034	inactive: -0.019	inactive: -0.076	inactive: -0.035	inactive: 0.028	inactive: -0.027	inactive: 0.079	inactive: 0.16	inactive: -0.048	inactive: -0.059	inactive: -0.025	inactive: 0.148	inactive: -0.049	inactive: -0.041	inactive: -0.021	inactive: 0.089
GTPBP3 isoform 2 (UniProt Q969Y2)	inactive: -0.01	inactive: -0.03	inactive: -0.002	inactive: 0.022	inactive: -0.044	inactive: 0.005	inactive: 0.018	inactive: -0.03	inactive: -0.108	inactive: 0.004	inactive: 0.075	inactive: -0.015	inactive: -0.021	inactive: 0.015	inactive: -0.063	inactive: 0.02	inactive: 0.002	inactive: 0.024	inactive: -0.059	inactive: -0.002
HDHD5 (UniProt Q9BXW7)	inactive: 0.075	inactive: -0.073	inactive: 0.132	inactive: -0.008	inactive: 0.064	inactive: -0.023	inactive: 0.197	inactive: 0.191	inactive: -0.029	inactive: 0.026	inactive: -0.071	inactive: -0.085	inactive: 0.043	inactive: -0.078	inactive: -0.068	inactive: -0.231	inactive: 0.033	inactive: 0.049	inactive: 0.005	inactive: -0.048
HEBP1 (UniProt Q9NRV9)	inactive: 0.393	inactive: 0.234	inactive: 0.039	inactive: -0.091	inactive: -0.006	inactive: 0.037	inactive: 0.012	inactive: 0.264	inactive: -0.07	inactive: -0.014	inactive: 0.101	inactive: 0.21	inactive: 0.061	inactive: -0.268	inactive: 0.282	inactive: 0.069	inactive: -0.073	inactive: -0.029	inactive: -0.233	inactive: -0.109
GSN (UniProt P06396)	inactive: -0.035	inactive: 0.123	inactive: 0.045	inactive: 0.054	inactive: -0.069	inactive: 0.055	inactive: -0.058	inactive: -0.223	inactive: -0.029	inactive: 0.018	inactive: -0.026	inactive: -0.011	inactive: -0.069	inactive: -0.12	inactive: 0	inactive: -0.035	inactive: -0.092	inactive: 0.077	inactive: 0.112	inactive: -0.023
HDDC3 (UniProt Q8N4P3)	inactive: -0.001	inactive: 0.023	inactive: -0.001	inactive: -0.003	inactive: -0.07	inactive: -0.041	inactive: -0.029	inactive: -0.053	inactive: -0.03	inactive: 0.002	inactive: 0.032	inactive: 0.055	inactive: -0.027	inactive: 0.012	inactive: 0.017	inactive: -0.048	inactive: -0.057	inactive: -0.032	inactive: -0.025	inactive: -0.084
H1-4 (UniProt P10412)	inactive: 0.003	inactive: -0.074	inactive: -0.004	inactive: -0.304	inactive: 0.514	inactive: -0.141	inactive: -0.066	inactive: 0.09	inactive: 0.212	inactive: -0.097	inactive: 0.136	inactive: 0.244	inactive: -0.026	inactive: -0.345	inactive: 0.017	inactive: 0.205	inactive: -0.088	inactive: -0.188	inactive: 0.342	inactive: 0.317
GTF2F2 (UniProt P13984)	inactive: 0.004	inactive: -0.008	inactive: 0.018	inactive: 0.029	inactive: 0	inactive: 0.023	inactive: 0.005	inactive: 0.005	inactive: 0.025	inactive: 0.022	inactive: -0.011	inactive: -0.032	inactive: 0.029	inactive: 0.027	inactive: -0.004	inactive: -0.011	inactive: 0.008	inactive: 0.034	inactive: -0.064	inactive: -0.042
H1-3 (UniProt P16402)	inactive: 0.047	inactive: 0.025	inactive: -0.014	inactive: -0.136	inactive: 0.405	inactive: -0.116	inactive: -0.013	inactive: 0.191	inactive: 0.162	inactive: -0.117	inactive: 0.094	inactive: 0.421	inactive: 0.024	inactive: -0.31	inactive: 0.014	inactive: 0.255	inactive: -0.059	inactive: -0.182	inactive: 0.216	inactive: 0.408
H4C1 (UniProt P62805)	inactive: -0.183	inactive: 0.005	inactive: -0.145	inactive: -0.04	inactive: 0.772	inactive: -0.269	inactive: 0.558	inactive: 0.042	inactive: 0.411	inactive: -0.146	inactive: -0.071	inactive: 0.12	inactive: -0.11	inactive: -0.323	inactive: 0.173	inactive: 0.334	inactive: -0.124	inactive: 0	inactive: 0.505	inactive: 0.181
HEATR3 (UniProt Q7Z4Q2)	inactive: 0.004	inactive: 0.116	inactive: 0.034	inactive: 0.047	inactive: 0.016	inactive: 0.007	inactive: 0.082	inactive: -0.067	inactive: 0.069	inactive: 0.144	inactive: -0.308	active: -0.36	inactive: 0.033	inactive: 0.039	–	inactive: 0.276	inactive: 0.058	–	inactive: 0.007	inactive: -0.34
HARS (UniProt P12081)	inactive: -0.033	inactive: 0.021	inactive: -0.007	inactive: 0	inactive: -0.033	inactive: -0.02	inactive: -0.025	inactive: -0.02	inactive: -0.082	inactive: 0.006	inactive: 0.018	inactive: 0.077	inactive: -0.041	inactive: -0.003	inactive: 0.006	inactive: 0.004	inactive: -0.027	inactive: -0.02	inactive: -0.06	inactive: -0.022
GSTCD (UniProt Q8NEC7)	inactive: -0.008	inactive: 0.001	inactive: 0.086	inactive: 0.022	inactive: 0.043	inactive: 0.063	inactive: -0.011	inactive: 0.192	inactive: -0.016	inactive: -0.071	inactive: 0.005	inactive: -0.11	inactive: 0.037	inactive: -0.036	inactive: -0.039	–	inactive: 0.054	inactive: 0.042	–	–
HELB (UniProt Q8NG08)	inactive: 0.008	inactive: 0.041	inactive: -0.017	inactive: 0.045	inactive: -0.038	inactive: 0.036	inactive: 0.114	inactive: -0.003	inactive: -0.011	inactive: 0.034	inactive: -0.093	inactive: 0.071	inactive: -0.041	inactive: 0.082	inactive: -0.198	inactive: -0.06	inactive: -0.054	inactive: -0.013	inactive: -0.081	inactive: 0.102
HACD3 (UniProt Q9P035)	inactive: -0.019	inactive: -0.014	inactive: -0.008	inactive: 0.015	inactive: 0.012	inactive: -0.017	inactive: 0.04	inactive: 0.033	inactive: 0.003	inactive: -0.003	inactive: 0.01	inactive: -0.028	inactive: -0.003	inactive: -0.025	inactive: -0.03	inactive: -0.016	inactive: 0.005	inactive: 0.035	inactive: 0.003	inactive: 0.135
HDHD2 (UniProt Q9H0R4)	inactive: 0.059	inactive: 0.028	inactive: 0.023	inactive: 0.014	active: -0.316	inactive: 0.02	inactive: 0.007	inactive: -0.028	inactive: 0.007	inactive: 0.011	inactive: 0.011	inactive: 0.049	inactive: -0.007	inactive: 0.073	–	inactive: -0.063	inactive: 0.053	–	inactive: -0.058	inactive: -0.096

Whole records from above. Values in the order: log2 fold change [1]	log2 fold change [2]	log2 fold change [3]	log2 fold change [4]	log2 fold change [5]	log2 fold change [6]	log2 fold change [7]	log2 fold change [8]	log2 fold change [9]	log2 fold change [10]	log2 fold change [11]	log2 fold change [12]	log2 fold change [13]	log2 fold change [14]	log2 fold change [15]	log2 fold change [16]	log2 fold change [17]	log2 fold change [18]	log2 fold change [19]	log2 fold change [20]
H1-4 (UniProt P10412) as listed: inactive: 0.003	inactive: -0.074	inactive: -0.004	inactive: -0.304	inactive: 0.514	inactive: -0.141	inactive: -0.066	inactive: 0.09	inactive: 0.212	inactive: -0.097	inactive: 0.136	inactive: 0.244	inactive: -0.026	inactive: -0.345	inactive: 0.017	inactive: 0.205	inactive: -0.088	inactive: -0.188	inactive: 0.342	inactive: 0.317
GTPBP3 isoform 2 (UniProt Q969Y2) as listed: inactive: -0.01	inactive: -0.03	inactive: -0.002	inactive: 0.022	inactive: -0.044	inactive: 0.005	inactive: 0.018	inactive: -0.03	inactive: -0.108	inactive: 0.004	inactive: 0.075	inactive: -0.015	inactive: -0.021	inactive: 0.015	inactive: -0.063	inactive: 0.02	inactive: 0.002	inactive: 0.024	inactive: -0.059	inactive: -0.002
